# Source: the supplement of paper PMC8728848
# Some of the results follow.
# B1: PX14351B-bth-512-36-512 (Bacteroides thetaiotaomicron) (protein)
# chain: ASETQQWKTLEDTRSALMGVYGLTRAALADNNTHWICGDLRKGDFTVYKRSDLQAVSDNELNKPYDLLKKVSNWRRFYAVINAASVFMEKAPRTVELDRSYSEQNLKYDIAQVRALRAFAYFYMVRIWGDVPLVTYSYDNGTFPSMPRTDAQTVLSYAKAELLTAIEDLPYQYGTQTNLYYGSYGAQWQGKLFNKLSAYSVLAHICAWQGNYAEAETYSAFIIDHASEINAKYTSIADLTSETGLFYSNASVKGSRILGFNFAHNDNEATQSGHLEQLTLAYPLVQKSYPEIYISKDSLFSIFTNFDDLRFGIIDTIKYSSYYVQNLNEETPVFSKIKIIQDGSAKDNDFGVFGSSIVFTRLEDITLLRAEALCALNRSTEAVSYLNMIRTNRGLREVSFKKDFGNNRESLIAEIFEERRRELMGEGWRWYDLVRRQKLMKDNEAFLRLISSGGIYWPVSEDIITANSQIEQNEFWK
# Assays:
# Experiment in all cases: glycan array binding signal (z-score within array); higher = stronger binding
# Details in all cases: glycan notation: IUPAC condensed, linker removed
# Kdn(a2-3)Gal(b1-4)Glc = molecular target: Kdn(a2-3)Gal(b1-4)Glc
# How it was run: (§1)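 Columns mapping to the same glycan were averaged after glycan names were converted to IUPAC-condensed notation. The data come from 3228 arrays in the Consortium for Functional Glycomics database, limited to those with an available protein sequence. Binding is reported as a within-array Z-score averaged across arrays of one protein sequence and across linkers.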
# Kdn(a2-3)Gal(b1-4)GlcNAc = molecular target: Kdn(a2-3)Gal(b1-4)GlcNAc
# How it was run: as §1
# Kdn(a2-6)Gal(b1-4)GlcNAc = molecular target: Kdn(a2-6)Gal(b1-4)GlcNAc
# How it was run: as §1
# [1] = molecular target: Man(a1-2)Man(a1-2)Man(a1-3)Man
# How it was run: as §1
# [2] = molecular target: Man(a1-2)Man(a1-2)Man(a1-6)[Man(a1-3)]Man
# How it was run: as §1
# Man(a1-2)Man(a1-3)Man = molecular target: Man(a1-2)Man(a1-3)Man
# How it was run: as §1
# [3] = molecular target: Man(a1-2)Man(a1-3)[Man(a1-2)Man(a1-6)]Man
# How it was run: as §1
# [4] = molecular target: Man(a1-2)Man(a1-3)[Man(a1-2)Man(a1-6)]Man(a1-6)[Man(a1-2)Man(a1-2)Man(a1-3)]Man
# How it was run: as §1
# [5] = molecular target: Man(a1-2)Man(a1-3)[Man(a1-2)Man(a1-6)]Man(a1-6)[Man(a1-2)Man(a1-2)Man(a1-3)]Man(b1-4)GlcNAc(b1-4)GlcNAc
# How it was run: as §1
# [6] = molecular target: Man(a1-2)Man(a1-3)[Man(a1-6)]Man(a1-6)[Man(a1-2)Man(a1-3)]Man(b1-4)GlcNAc(b1-4)GlcNAc
# How it was run: as §1
# [7] = molecular target: Man(a1-2)Man(a1-6)[Man(a1-3)]Man(a1-6)[Man(a1-2)Man(a1-2)Man(a1-3)]Man
# How it was run: as §1
# [8] = molecular target: Man(a1-2)Man(a1-6)[Man(a1-3)]Man(a1-6)[Man(a1-2)Man(a1-2)Man(a1-3)]Man(b1-4)GlcNAc(b1-4)GlcNAc
# How it was run: as §1
# Man(a1-3)[Man(a1-6)]Man = molecular target: Man(a1-3)[Man(a1-6)]Man
# How it was run: as §1
# [9] = molecular target: Man(a1-3)[Man(a1-6)]Man(a1-6)[Man(a1-2)Man(a1-3)]Man(b1-4)GlcNAc(b1-4)GlcNAc
# How it was run: as §1
# [10] = molecular target: Man(a1-3)[Man(a1-6)]Man(a1-6)[Man(a1-3)]Man
# How it was run: as §1
# [11] = molecular target: Man(a1-3)[Man(a1-6)]Man(b1-4)GlcNAc(b1-4)GlcNAc
# How it was run: as §1
# [12] = molecular target: Man(a1-3)[Man(a1-6)]Man(b1-4)GlcNAc(b1-4)[Fuc(a1-6)]GlcNAc
# How it was run: as §1
# Man(a1-6)Man = molecular target: Man(a1-6)Man
# How it was run: as §1
# Man(b1-4)GlcNAc = molecular target: Man(b1-4)GlcNAc
# How it was run: as §1
# MurNAc(b1-4)GlcNAc = molecular target: MurNAc(b1-4)GlcNAc
# How it was run: as §1
# Neu5Ac(a2-3)Gal = molecular target: Neu5Ac(a2-3)Gal
# How it was run: as §1
# [13] = molecular target: Neu5Ac(a2-3)Gal(b1-3)GalNAc
# How it was run: as §1
# [14] = molecular target: Neu5Ac(a2-3)Gal(b1-3)GalNAc(b1-3)Gal(a1-4)Gal(b1-4)Glc
# How it was run: as §1
# [15] = molecular target: Neu5Ac(a2-3)Gal(b1-3)GalNAc(b1-4)[Neu5Ac(a2-3)]Gal(b1-4)Glc
# How it was run: as §1
# [16] = molecular target: Neu5Ac(a2-3)Gal(b1-3)GalNAc(b1-4)[Neu5Ac(a2-8)Neu5Ac(a2-3)]Gal(b1-4)Glc
# How it was run: as §1
# [17] = molecular target: Neu5Ac(a2-3)Gal(b1-3)GalNAc6S
# How it was run: as §1
# [18] = molecular target: Neu5Ac(a2-3)Gal(b1-3)GlcNAc
# How it was run: as §1
# [19] = molecular target: Neu5Ac(a2-3)Gal(b1-3)GlcNAc(b1-2)Man
# How it was run: as §1
# [20] = molecular target: Neu5Ac(a2-3)Gal(b1-3)GlcNAc(b1-2)Man(a1-3)[GlcNAc(b1-4)][Neu5Ac(a2-3)Gal(b1-3)GlcNAc(b1-2)Man(a1-6)]Man(b1-4)GlcNAc(b1-4)GlcNAc
# How it was run: as §1
# [21] = molecular target: Neu5Ac(a2-3)Gal(b1-3)GlcNAc(b1-2)Man(a1-3)[Neu5Ac(a2-3)Gal(b1-3)GlcNAc(b1-2)Man(a1-6)]Man(b1-4)GlcNAc(b1-4)GlcNAc
# How it was run: as §1
# [22] = molecular target: Neu5Ac(a2-3)Gal(b1-3)GlcNAc(b1-3)Gal(b1-3)GlcNAc
# How it was run: as §1
# [23] = molecular target: Neu5Ac(a2-3)Gal(b1-3)GlcNAc(b1-3)Gal(b1-4)GlcNAc
# How it was run: as §1
# [24] = molecular target: Neu5Ac(a2-3)Gal(b1-3)GlcNAc(b1-3)GalNAc
# How it was run: as §1
# [25] = molecular target: Neu5Ac(a2-3)Gal(b1-3)GlcNAc(b1-4)Gal(b1-4)Glc
# How it was run: as §1
# [26] = molecular target: Neu5Ac(a2-3)Gal(b1-3)GlcNAc(b1-6)GalNAc
# How it was run: as §1
# [27] = molecular target: Neu5Ac(a2-3)Gal(b1-3)GlcNAc6S
# How it was run: as §1
# [28] = molecular target: Neu5Ac(a2-3)Gal(b1-3)[Fuc(a1-4)]GlcNAc
# How it was run: as §1
binder,measurement,setting,value
B1,glycan array binding signal (z-score),Kdn(a2-3)Gal(b1-4)Glc,-0.156
same,glycan array binding signal (z-score),Kdn(a2-3)Gal(b1-4)GlcNAc,-0.028
same,glycan array binding signal (z-score),Kdn(a2-6)Gal(b1-4)GlcNAc,-0.171
same,glycan array binding signal (z-score),[1],-0.152
same,glycan array binding signal (z-score),[2],-0.353
same,glycan array binding signal (z-score),Man(a1-2)Man(a1-3)Man,-0.28
same,glycan array binding signal (z-score),[3],-0.34
same,glycan array binding signal (z-score),[4],-0.251
same,glycan array binding signal (z-score),[5],-0.183
same,glycan array binding signal (z-score),[6],-0.379
same,glycan array binding signal (z-score),[7],-0.363
same,glycan array binding signal (z-score),[8],-0.248
same,glycan array binding signal (z-score),Man(a1-3)[Man(a1-6)]Man,-0.338
same,glycan array binding signal (z-score),[9],-0.223
same,glycan array binding signal (z-score),[10],-0.077
same,glycan array binding signal (z-score),[11],-0.362
same,glycan array binding signal (z-score),[12],-0.118
same,glycan array binding signal (z-score),Man(a1-6)Man,-0.091
same,glycan array binding signal (z-score),Man(b1-4)GlcNAc,0.141
same,glycan array binding signal (z-score),MurNAc(b1-4)GlcNAc,-0.268
same,glycan array binding signal (z-score),Neu5Ac(a2-3)Gal,-0.212
same,glycan array binding signal (z-score),[13],-0.239
same,glycan array binding signal (z-score),[14],0.331
same,glycan array binding signal (z-score),[15],-0.236
same,glycan array binding signal (z-score),[16],-0.112
same,glycan array binding signal (z-score),[17],-0.377
same,glycan array binding signal (z-score),[18],-0.119
same,glycan array binding signal (z-score),[19],0.134
same,glycan array binding signal (z-score),[20],-0.221
same,glycan array binding signal (z-score),[21],-0.326
same,glycan array binding signal (z-score),[22],-0.346
same,glycan array binding signal (z-score),[23],-0.273
same,glycan array binding signal (z-score),[24],0.034
same,glycan array binding signal (z-score),[25],-0.301
same,glycan array binding signal (z-score),[26],-0.15
same,glycan array binding signal (z-score),[27],-0.085
same,glycan array binding signal (z-score),[28],0.092

# Another view of part of the listing above.
binder	measurement	setting	value
B1	glycan array binding signal (z-score)	[3]	-0.34
same	glycan array binding signal (z-score)	[4]	-0.251
